# Assay results reported in US10526291B2, “Potent dual BRD4-kinase inhibitors as cancer therapeutics” (H. Lee Moffitt Cancer Center and Research Institute, Inc., priority 2014, dated 2020).
# Target: BRD4 (Homo sapiens, UniProt O60885)
# Experiment: Differential Scanning Fluorimetry (DSF), stability of BRD4 upon ligand binding
# Conditions: 100 μM protein, 4 μM compound and 2% DMSO
# Method: DSF=Differential Scanning Fluorimetry; provides a measure of the increased stability of BRD4 upon ligand binding The DSF experiment was run at 100 μM protein, 4 μM compound and 2% DMSO.
structure (smiles),measurement,value
"CCc1cnn2c(NCc3ccc[n+]([O-])c3)cc(N3CCCC[C@H]3CCO)nc12 [Dinaciclib, reference compound]",ΔTm at 4 µM,0.53 °C
